Test results: patent US9045490B2, “Use of parthenolide derivatives as antileukemic and cytotoxic agents” (University of Kentucky, priority 2003, dated 2015)
Some entries share one result that the patent states for a list of compounds.

Tested on: hormone refractory prostate cancer cell line CWR22Rv1
Assay: Clonogenic assay
Assay type: cell-based
Details: at 2 μm

| Compound | reduction of cellular proliferation |
| --- | --- |
| 11S,11,13-Dihydro,13-(4-methylpiperidin-1-yl)parthenolide [Compound 4MePipPT] | up to 80% |
| C/C1=C\CC[C@@]2(C)O[C@@H]2[C@H]2OC(=O)[C@H](CN(C)C)[C@@H]2CC1 [DMAPT, 11S,11,13-Dihydro,13-dimethylaminoparthenolide] | up to 80% |
